# In PubChem BioAssay AID1487 (National Center for Advancing Translational Sciences (NCATS), 2009):
# This is one part of the list. The main result of the screen is listed elsewhere. These columns were measured beside it and carry no call. The list favours compounds with an active or inconclusive main result. Words in brackets tell the shape of the fitted curve; partial curves, single points and poor fits give uncertain potencies.
# Assay: qHTS Assay for Modulators of Lamin A Splicing
# Conditions: HeLa LMNA splicing GFP/RFP minigene ratio, 48 h
# In short: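 S3 HeLa stable clones carrying a lamin A-EGFP splicing minigene plus DsRed2 were seeded at 600 cells/well in Opti-MEM with 2% FBS, pin-dosed and incubated 48 h at 37°C. Acumen cytometry (488 nm) gave the GFP/RFP total-intensity ratio.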
# [1] = measured here: GFP splicing reporter channel
# [2] = measured here: RFP viability control channel
SMILES,AC50 [1],AC50 [2]
CCn1c(O)c(N=NC(=S)NCC2CCCO2)c2ccccc21 (stereo not given),"2.51 µM [rising, full curve, poor fit]","35.5 µM [rising, single point]"
O=c1cc(O)nc(SCc2ccccc2)n1-c1ccccc1,,"14.1 µM [falling, partial curve, poor fit]"
Cc1cc(-c2nc3ncccc3o2)ccc1NC(=O)COc1ccccc1C,,"0.02 µM [falling, full curve, poor fit]"
O=c1c(CCc2ccccc2)nc2cnc(Nc3ccccc3)nc2n1C[C@H]1CCCO1,,"12.6 µM [falling, partial curve, poor fit]"
Cc1ccc(S(=O)(=O)N2CCC(C(=O)N/N=C/c3cccnc3)CC2)cc1,,"0.0112 µM [falling, full curve, poor fit]"
CN(Cc1ccco1)c1ncnc2ccc(-c3cccc(NS(C)(=O)=O)c3)cc12,"22.4 µM [falling, single point]","35.5 µM [falling, single point]"
Cc1ccc(CSCCNC(=O)/C=C/c2ccccc2Cl)cc1,"14.1 µM [rising, single point]",
CCCCNC(=S)NCc1ccc2c(c1)cc(C)n2C,,"35.5 µM [rising, single point]"
O=[N+]([O-])C(=C1Nc2ccccc2N1)C(Cl)=C(Cl)Cl,"2.24 µM [falling, partial curve, poor fit]",
COCCNS(=O)(=O)c1cc(-c2nn(C)c(=O)c3ccccc23)ccc1C,"22.4 µM [rising, single point]","15.8 µM [rising, single point]"
Fc1cccc(Nc2nc(-c3ccncc3)nc3ccccc23)c1,,"2.82 µM [rising, partial curve]"
CC1SCC(=O)N(CC(=O)NCCc2ccccc2)C1=O (stereo not given),,"1.41 µM [falling, partial curve, poor fit]"
Cc1ccccc1-n1c(=O)cc(NCc2ccc3c(c2)OCO3)[nH]c1=O,,"15.8 µM [rising, partial curve, poor fit]"
CCOc1ccc(N2CC(NC(=O)/C=C\c3ccc4c(c3)OCO4)CC2=O)cc1 (stereo not given),,"3.55 µM [rising, full curve, poor fit]"
OCCNc1nc(-c2cccnc2)nc2ccccc12,,"0.0794 µM [falling, full curve, poor fit]"
CCOC(=O)c1sc2ccccc2c1S(=O)(=O)Nc1ccc(CC)cc1,"2 µM [rising, partial curve]",
CCOC(=O)CC1CCCCN1Cc1cn[nH]c1-c1ccc(F)cc1F (stereo not given),"2.24 µM [rising, full curve, poor fit]",

# Some values from the results shown:
# `CCCCNC(=S)NCc1ccc2c(c1)cc(C)n2C` – AC50 [2]: 35.5 µM [rising, single point]
# `CCn1c(O)c(N=NC(=S)NCC2CCCO2)c2ccccc21` (stereo not given) – AC50 [2]: 35.5 µM [rising, single point]
